PubChem BioAssay AID504764 | Drosophila RNAi Screening Center | 2011
Screen: 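Genes whose knock-down alters Notch-dependent transcription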 (primary screen). Cells: Drosophila Kc167 cells. Reagents: long dsRNA against Drosophila genes. Time to read-out: about 5 days (4 days dsRNA, then 24 h after transfection). Treatment: transfection of constitutively active membrane-tethered Notch lacking the extracellular domain, read 24 h later. Read-out: 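Firefly luciferase from an E(spl)m3 reporter with active Notch, plus control-promoter and uninduced reporter wells for normalisation; unnormalised counts, duplicate wells a and b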. Scale: induced reporter light, run 1, well a and induced reporter light, run 1, well b: higher = more light from the Notch target reporter with active Notch; control promoter light, run 1, well a and control promoter light, run 1, well b: higher = more light from the viral control promoter (cell number, transfection, viability); uninduced reporter light, run 1, well a: higher = more light from the Notch target reporter without active Notch. Hit rule: 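Hit if the duplicate-averaged log2 ratio of induced to control-promoter light gives a plate-wise z beyond ±2, or induced to uninduced beyond ±1.8; weak-control or discordant-duplicate wells dropped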. Calls: active = modifier hit (raised or lowered Notch signal); inactive = not a hit.
The screen tested about 22,000 reagents; below is a random part of those that have a named target and a result. Of all reagents, 403 (1.9%) got an active call. 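Unnormalised raw counts per well; ratio z-scores behind the hit calls and whether each hit raises or lowers signal are not deposited.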 Reagents against one gene are numbered here. The record does not give: the amount of reagent.

stops #1 | induced reporter light, run 1, well a: 1.18e5; induced reporter light, run 1, well b: 1.23e5; control promoter light, run 1, well a: 1.80e5; control promoter light, run 1, well b: 1.71e5; uninduced reporter light, run 1, well a: 11190; outcome: inactive
stops #2 | induced reporter light, run 1, well a: 1.44e5; induced reporter light, run 1, well b: 1.13e5; control promoter light, run 1, well a: 1.90e5; control promoter light, run 1, well b: 2.24e5; uninduced reporter light, run 1, well a: 12890; outcome: inactive
stops #3 | induced reporter light, run 1, well a: 1.40e5; induced reporter light, run 1, well b: 1.56e5; control promoter light, run 1, well a: 1.98e5; control promoter light, run 1, well b: 1.61e5; uninduced reporter light, run 1, well a: 12045; outcome: inactive
ACC #1 | induced reporter light, run 1, well a: 8080; induced reporter light, run 1, well b: 6210; control promoter light, run 1, well a: 9510; control promoter light, run 1, well b: 8320; uninduced reporter light, run 1, well a: 900; outcome: inactive
ACC #2 | induced reporter light, run 1, well a: 1.18e5; induced reporter light, run 1, well b: 1.14e5; control promoter light, run 1, well a: 1.39e5; control promoter light, run 1, well b: 1.54e5; uninduced reporter light, run 1, well a: 13070; outcome: inactive
CG31279 | induced reporter light, run 1, well a: 97550; induced reporter light, run 1, well b: 1.24e5; control promoter light, run 1, well a: 1.47e5; control promoter light, run 1, well b: 1.19e5; uninduced reporter light, run 1, well a: 8705; outcome: inactive
CG4896 | induced reporter light, run 1, well a: 1.72e5; induced reporter light, run 1, well b: 2.02e5; control promoter light, run 1, well a: 1.93e5; control promoter light, run 1, well b: 2.20e5; uninduced reporter light, run 1, well a: 18878; outcome: inactive
CG17168 | induced reporter light, run 1, well a: 1.00e5; induced reporter light, run 1, well b: 83560; control promoter light, run 1, well a: 1.09e5; control promoter light, run 1, well b: 1.15e5; uninduced reporter light, run 1, well a: 8895; outcome: inactive
CG12746 | induced reporter light, run 1, well a: 1.03e5; induced reporter light, run 1, well b: 1.09e5; control promoter light, run 1, well a: 69285; control promoter light, run 1, well b: 75850; uninduced reporter light, run 1, well a: 9910; outcome: inactive
CG13216 | induced reporter light, run 1, well a: 1.09e5; induced reporter light, run 1, well b: 1.27e5; control promoter light, run 1, well a: 1.66e5; control promoter light, run 1, well b: 1.40e5; uninduced reporter light, run 1, well a: 11810; outcome: inactive
Cpr78Ca | induced reporter light, run 1, well a: 1.25e5; induced reporter light, run 1, well b: 1.06e5; control promoter light, run 1, well a: 1.24e5; control promoter light, run 1, well b: 1.16e5; uninduced reporter light, run 1, well a: 8405; outcome: inactive
CG5783 | induced reporter light, run 1, well a: 1.71e5; induced reporter light, run 1, well b: 1.64e5; control promoter light, run 1, well a: 1.57e5; control promoter light, run 1, well b: 1.79e5; uninduced reporter light, run 1, well a: 11740; outcome: inactive
CG12325 | induced reporter light, run 1, well a: 1.20e5; induced reporter light, run 1, well b: 1.30e5; control promoter light, run 1, well a: 1.18e5; control promoter light, run 1, well b: 1.01e5; uninduced reporter light, run 1, well a: 9820; outcome: inactive
hebe #1 | induced reporter light, run 1, well a: 56195; induced reporter light, run 1, well b: 59190; control promoter light, run 1, well a: 93375; control promoter light, run 1, well b: 67035; uninduced reporter light, run 1, well a: 3232; outcome: inactive
hebe #2 | induced reporter light, run 1, well a: 1.36e5; induced reporter light, run 1, well b: 1.33e5; control promoter light, run 1, well a: 1.40e5; control promoter light, run 1, well b: 1.13e5; uninduced reporter light, run 1, well a: 11350; outcome: inactive
ZnT49B | induced reporter light, run 1, well a: 90895; induced reporter light, run 1, well b: 1.15e5; control promoter light, run 1, well a: 1.49e5; control promoter light, run 1, well b: 91500; uninduced reporter light, run 1, well a: 9370; outcome: inactive
alpha4GT2 | induced reporter light, run 1, well a: 1.18e5; induced reporter light, run 1, well b: 1.55e5; control promoter light, run 1, well a: 1.63e5; control promoter light, run 1, well b: 1.52e5; uninduced reporter light, run 1, well a: 11535; outcome: inactive
CG13630 | induced reporter light, run 1, well a: 17430; induced reporter light, run 1, well b: 16545; control promoter light, run 1, well a: 17255; control promoter light, run 1, well b: 15845; uninduced reporter light, run 1, well a: 1770; outcome: inactive
CG14818 | induced reporter light, run 1, well a: 1.47e5; induced reporter light, run 1, well b: 1.39e5; control promoter light, run 1, well a: 2.13e5; control promoter light, run 1, well b: 2.52e5; uninduced reporter light, run 1, well a: 9205; outcome: inactive
CheA75a | induced reporter light, run 1, well a: 1.24e5; induced reporter light, run 1, well b: 1.31e5; control promoter light, run 1, well a: 71925; control promoter light, run 1, well b: 77135; uninduced reporter light, run 1, well a: 10905; outcome: inactive
Polr1H | induced reporter light, run 1, well a: 1.78e5; induced reporter light, run 1, well b: 1.68e5; control promoter light, run 1, well a: 2.65e5; control promoter light, run 1, well b: 2.83e5; uninduced reporter light, run 1, well a: 12005; outcome: inactive
shop | induced reporter light, run 1, well a: 1.38e5; induced reporter light, run 1, well b: 1.24e5; control promoter light, run 1, well a: 1.13e5; control promoter light, run 1, well b: 68170; uninduced reporter light, run 1, well a: 10085; outcome: inactive
CG31075 | induced reporter light, run 1, well a: 1.28e5; induced reporter light, run 1, well b: 1.52e5; control promoter light, run 1, well a: 1.97e5; control promoter light, run 1, well b: 1.75e5; uninduced reporter light, run 1, well a: 12205; outcome: inactive
CG14118 | induced reporter light, run 1, well a: 1.52e5; induced reporter light, run 1, well b: 1.11e5; control promoter light, run 1, well a: 1.87e5; control promoter light, run 1, well b: 1.49e5; uninduced reporter light, run 1, well a: 7388; outcome: inactive

An excerpt of the results above:
CG31279 | induced reporter light, run 1, well a: 97550; induced reporter light, run 1, well b: 1.24e5; control promoter light, run 1, well a: 1.47e5; control promoter light, run 1, well b: 1.19e5; uninduced reporter light, run 1, well a: 8705; outcome: inactive
CG4896 | induced reporter light, run 1, well a: 1.72e5; induced reporter light, run 1, well b: 2.02e5; control promoter light, run 1, well a: 1.93e5; control promoter light, run 1, well b: 2.20e5; uninduced reporter light, run 1, well a: 18878; outcome: inactive
